Results from paper PMC8124558.
No constants are given. Whether binding was seen depends on the method and setting. Binding seen in cells or lysates may run through a third protein. Some binding calls cover weakened binding; strength is not graded here. Sequences can lack the tags named with a protein.

The chains behind the UniProt entries cited, without tags or fusion partners. Residues count along the entry.
UniProt P07942, residues 22-1786: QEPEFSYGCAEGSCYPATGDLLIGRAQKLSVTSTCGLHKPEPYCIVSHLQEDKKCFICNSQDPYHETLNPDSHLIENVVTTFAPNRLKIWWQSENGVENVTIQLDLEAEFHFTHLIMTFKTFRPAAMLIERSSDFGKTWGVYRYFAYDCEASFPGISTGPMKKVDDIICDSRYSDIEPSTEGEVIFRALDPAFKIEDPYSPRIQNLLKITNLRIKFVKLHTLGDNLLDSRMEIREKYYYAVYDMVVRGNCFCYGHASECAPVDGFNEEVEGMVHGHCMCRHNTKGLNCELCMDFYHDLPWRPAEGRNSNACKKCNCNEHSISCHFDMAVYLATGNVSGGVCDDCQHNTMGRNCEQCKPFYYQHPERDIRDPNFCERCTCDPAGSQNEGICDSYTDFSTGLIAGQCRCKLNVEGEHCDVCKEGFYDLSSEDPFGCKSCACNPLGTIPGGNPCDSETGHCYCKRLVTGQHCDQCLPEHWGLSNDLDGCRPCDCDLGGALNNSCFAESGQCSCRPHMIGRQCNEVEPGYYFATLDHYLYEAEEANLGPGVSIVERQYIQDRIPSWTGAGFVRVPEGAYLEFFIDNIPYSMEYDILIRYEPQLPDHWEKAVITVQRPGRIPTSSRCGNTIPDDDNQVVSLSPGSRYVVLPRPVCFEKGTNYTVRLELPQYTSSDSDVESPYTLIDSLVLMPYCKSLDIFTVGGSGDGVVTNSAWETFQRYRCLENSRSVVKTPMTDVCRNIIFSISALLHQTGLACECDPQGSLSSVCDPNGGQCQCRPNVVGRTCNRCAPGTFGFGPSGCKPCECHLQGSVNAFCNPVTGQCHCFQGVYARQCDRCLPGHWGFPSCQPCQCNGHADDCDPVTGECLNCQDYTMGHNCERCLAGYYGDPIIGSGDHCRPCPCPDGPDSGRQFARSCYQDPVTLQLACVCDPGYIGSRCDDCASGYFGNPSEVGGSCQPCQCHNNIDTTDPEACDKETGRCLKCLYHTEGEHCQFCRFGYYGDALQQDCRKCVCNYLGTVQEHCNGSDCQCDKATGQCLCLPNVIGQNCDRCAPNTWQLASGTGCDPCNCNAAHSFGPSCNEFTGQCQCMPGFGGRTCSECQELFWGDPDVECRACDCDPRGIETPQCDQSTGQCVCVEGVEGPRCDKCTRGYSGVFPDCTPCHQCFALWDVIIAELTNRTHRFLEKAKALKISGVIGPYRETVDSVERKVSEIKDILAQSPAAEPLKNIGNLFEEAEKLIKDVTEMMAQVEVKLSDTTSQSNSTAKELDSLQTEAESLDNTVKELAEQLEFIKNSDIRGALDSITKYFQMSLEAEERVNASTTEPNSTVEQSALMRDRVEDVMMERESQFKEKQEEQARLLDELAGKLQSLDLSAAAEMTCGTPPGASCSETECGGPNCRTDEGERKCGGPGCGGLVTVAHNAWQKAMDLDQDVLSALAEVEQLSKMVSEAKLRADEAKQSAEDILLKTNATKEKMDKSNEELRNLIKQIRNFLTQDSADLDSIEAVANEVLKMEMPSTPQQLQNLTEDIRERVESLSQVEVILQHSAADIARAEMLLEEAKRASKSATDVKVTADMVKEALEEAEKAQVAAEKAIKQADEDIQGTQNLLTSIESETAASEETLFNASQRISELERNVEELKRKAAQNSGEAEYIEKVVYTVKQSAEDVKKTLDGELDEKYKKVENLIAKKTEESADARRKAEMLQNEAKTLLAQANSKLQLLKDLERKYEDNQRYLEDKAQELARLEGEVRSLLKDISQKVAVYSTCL
UniProt P02751, residues 32-2477: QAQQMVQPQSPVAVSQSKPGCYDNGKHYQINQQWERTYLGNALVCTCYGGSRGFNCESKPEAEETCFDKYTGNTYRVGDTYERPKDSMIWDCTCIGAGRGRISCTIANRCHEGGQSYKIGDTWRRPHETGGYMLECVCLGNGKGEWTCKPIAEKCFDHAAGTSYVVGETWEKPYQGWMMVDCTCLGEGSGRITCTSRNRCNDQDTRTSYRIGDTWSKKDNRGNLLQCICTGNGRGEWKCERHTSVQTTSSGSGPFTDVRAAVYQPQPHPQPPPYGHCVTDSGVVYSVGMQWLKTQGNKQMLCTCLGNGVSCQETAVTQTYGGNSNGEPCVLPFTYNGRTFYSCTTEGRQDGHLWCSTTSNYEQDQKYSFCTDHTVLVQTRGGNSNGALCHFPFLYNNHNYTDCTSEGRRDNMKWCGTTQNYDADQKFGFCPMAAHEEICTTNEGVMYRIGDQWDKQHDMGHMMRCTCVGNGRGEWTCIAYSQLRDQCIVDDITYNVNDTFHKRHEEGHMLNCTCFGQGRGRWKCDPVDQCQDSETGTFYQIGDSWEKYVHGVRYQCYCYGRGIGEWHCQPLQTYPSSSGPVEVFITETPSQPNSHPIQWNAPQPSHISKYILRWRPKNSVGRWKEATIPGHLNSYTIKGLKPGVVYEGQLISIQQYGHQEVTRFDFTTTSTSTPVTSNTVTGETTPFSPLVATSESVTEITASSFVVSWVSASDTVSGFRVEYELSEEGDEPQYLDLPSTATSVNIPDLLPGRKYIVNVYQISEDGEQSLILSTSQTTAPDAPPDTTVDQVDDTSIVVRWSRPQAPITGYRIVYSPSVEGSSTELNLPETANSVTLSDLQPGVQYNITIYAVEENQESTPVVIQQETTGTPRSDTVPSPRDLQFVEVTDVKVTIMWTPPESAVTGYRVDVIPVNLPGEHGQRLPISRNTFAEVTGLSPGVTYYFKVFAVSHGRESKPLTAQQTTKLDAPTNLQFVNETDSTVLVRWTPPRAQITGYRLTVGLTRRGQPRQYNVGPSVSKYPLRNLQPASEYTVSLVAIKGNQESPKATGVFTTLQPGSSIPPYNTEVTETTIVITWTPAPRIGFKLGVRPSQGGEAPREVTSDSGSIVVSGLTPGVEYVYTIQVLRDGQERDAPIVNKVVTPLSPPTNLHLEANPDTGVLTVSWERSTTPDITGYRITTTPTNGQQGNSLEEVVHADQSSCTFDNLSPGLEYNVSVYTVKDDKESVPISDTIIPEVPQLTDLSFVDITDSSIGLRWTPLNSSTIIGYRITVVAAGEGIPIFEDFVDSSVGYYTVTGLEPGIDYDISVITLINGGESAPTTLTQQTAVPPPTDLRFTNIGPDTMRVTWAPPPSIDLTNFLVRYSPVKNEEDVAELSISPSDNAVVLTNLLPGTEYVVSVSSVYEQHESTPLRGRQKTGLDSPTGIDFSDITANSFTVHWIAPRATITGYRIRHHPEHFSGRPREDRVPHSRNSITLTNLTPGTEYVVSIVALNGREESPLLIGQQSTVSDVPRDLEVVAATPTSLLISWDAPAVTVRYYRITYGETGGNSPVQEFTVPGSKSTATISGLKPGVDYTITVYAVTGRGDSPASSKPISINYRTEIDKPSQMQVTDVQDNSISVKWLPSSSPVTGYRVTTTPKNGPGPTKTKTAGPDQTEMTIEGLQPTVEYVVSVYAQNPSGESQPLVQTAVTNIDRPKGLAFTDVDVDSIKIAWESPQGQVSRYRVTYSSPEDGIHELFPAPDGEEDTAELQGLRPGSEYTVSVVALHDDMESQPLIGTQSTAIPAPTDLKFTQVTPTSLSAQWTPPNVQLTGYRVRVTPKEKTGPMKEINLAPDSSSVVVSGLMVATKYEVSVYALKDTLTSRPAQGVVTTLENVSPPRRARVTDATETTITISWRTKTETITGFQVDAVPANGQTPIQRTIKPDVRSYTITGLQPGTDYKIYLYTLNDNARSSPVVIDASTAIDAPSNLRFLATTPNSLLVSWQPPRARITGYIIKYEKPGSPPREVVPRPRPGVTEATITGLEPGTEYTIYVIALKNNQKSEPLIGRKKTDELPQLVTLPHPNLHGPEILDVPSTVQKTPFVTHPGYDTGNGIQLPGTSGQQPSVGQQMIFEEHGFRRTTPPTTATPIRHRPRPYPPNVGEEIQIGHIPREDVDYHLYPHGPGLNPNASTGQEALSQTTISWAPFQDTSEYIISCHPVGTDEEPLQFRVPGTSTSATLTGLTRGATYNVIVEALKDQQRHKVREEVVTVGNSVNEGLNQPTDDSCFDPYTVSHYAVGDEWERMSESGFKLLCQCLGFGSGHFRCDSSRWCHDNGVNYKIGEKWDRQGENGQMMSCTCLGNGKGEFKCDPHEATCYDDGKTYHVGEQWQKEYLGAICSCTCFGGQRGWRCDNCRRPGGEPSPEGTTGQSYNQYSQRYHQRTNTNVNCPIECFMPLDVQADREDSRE

Columns and labels:
Assay in all cases: cross-linking; Sulfo-SBED-labelled phage (10^12 pfu) incubated 1 h at 4 °C in the dark with hCMEC/D3 cells, with or without 20 ng/mL rhIL-1β for 2 h; UV cross-linking, cleavage with TCEP, lysis, capture of biotin-labelled proteins on streptavidin beads, nLC-MS/MS; Ph88/WT phage ratio higher than 1.33 as criterion; two independent experiments; only the binder purified
[1] = target: laminin subunit β1 (endogenous, hCMEC/D3 cells) (human (endogenous in hCMEC/D3)) (UniProt P07942)
[2] = target: T1, flotillin-1 (endogenous, hCMEC/D3 cells) (human (endogenous in hCMEC/D3)) (UniProt O75955)
T1 sequence: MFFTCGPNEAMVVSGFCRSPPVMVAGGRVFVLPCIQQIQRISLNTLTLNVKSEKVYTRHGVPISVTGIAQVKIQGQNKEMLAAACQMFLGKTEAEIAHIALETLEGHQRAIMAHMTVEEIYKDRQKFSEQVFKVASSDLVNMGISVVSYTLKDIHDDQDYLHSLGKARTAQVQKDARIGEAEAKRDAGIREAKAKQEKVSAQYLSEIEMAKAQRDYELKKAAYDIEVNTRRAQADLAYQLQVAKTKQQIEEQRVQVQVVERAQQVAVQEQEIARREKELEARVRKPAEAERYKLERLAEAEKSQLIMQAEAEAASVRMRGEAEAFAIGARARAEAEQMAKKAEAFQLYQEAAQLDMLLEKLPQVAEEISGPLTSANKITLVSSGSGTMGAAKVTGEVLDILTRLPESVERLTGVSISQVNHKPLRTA

[3] = target: fibronectin (endogenous, hCMEC/D3 cells) (human (endogenous in hCMEC/D3)) (UniProt P02751)

Q: For TPMMPETSQRFK (Sulfo-SBED on primary amines of the phage surface) [phage 88 (M13 phage displaying peptide-88 as a fusion of the coat protein pIII)], which binding [1] is on record?
A: binds

Q: And the binding [2]?
A: no binding

Q: And the binding [3]?
A: binds
